Measured values as given in the supplement of paper PMC10849652.
The list shows a part of the results.

By UniProt entry, the sequences of proteins in these tests, tags left out. Where a name states a change or a piece, a line headed by the entry shows the natural chain unless it says otherwise.
UniProt A6NHX0: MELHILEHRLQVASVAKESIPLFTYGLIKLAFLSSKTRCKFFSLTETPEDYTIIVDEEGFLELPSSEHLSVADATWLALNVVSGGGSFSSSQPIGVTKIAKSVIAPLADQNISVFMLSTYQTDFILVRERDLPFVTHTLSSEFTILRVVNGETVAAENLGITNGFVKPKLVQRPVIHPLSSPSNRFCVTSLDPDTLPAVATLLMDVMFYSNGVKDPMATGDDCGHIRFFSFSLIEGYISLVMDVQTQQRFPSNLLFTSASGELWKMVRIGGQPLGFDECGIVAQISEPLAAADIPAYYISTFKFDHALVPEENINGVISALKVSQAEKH
UniProt Q13191, whole entry, looked up: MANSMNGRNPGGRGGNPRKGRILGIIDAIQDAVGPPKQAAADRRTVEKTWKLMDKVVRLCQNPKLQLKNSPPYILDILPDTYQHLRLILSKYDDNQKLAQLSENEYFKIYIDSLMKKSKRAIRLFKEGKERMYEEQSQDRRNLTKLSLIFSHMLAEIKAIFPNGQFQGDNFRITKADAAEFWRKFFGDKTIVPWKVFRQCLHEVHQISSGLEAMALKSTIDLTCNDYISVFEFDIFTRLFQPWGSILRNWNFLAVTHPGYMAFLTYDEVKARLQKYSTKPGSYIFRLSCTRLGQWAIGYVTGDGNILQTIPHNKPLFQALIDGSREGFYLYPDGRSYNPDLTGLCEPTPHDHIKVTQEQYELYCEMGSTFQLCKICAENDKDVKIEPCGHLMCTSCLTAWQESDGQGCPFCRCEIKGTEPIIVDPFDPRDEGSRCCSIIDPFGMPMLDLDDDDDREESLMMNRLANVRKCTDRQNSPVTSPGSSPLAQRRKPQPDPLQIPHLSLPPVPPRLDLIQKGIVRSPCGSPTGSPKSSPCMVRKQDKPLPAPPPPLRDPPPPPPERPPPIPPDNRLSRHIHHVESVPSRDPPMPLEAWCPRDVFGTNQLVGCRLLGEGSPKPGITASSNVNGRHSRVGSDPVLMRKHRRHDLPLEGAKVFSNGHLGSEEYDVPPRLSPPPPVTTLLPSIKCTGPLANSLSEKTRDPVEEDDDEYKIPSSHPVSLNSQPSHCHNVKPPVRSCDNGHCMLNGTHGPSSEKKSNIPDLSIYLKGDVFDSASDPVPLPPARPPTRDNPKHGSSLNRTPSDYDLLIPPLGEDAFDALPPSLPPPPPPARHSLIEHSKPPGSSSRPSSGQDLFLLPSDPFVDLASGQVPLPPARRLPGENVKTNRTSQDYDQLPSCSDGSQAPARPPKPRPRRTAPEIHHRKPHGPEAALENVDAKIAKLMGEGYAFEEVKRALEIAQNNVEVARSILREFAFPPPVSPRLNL
UniProt Q7Z3E2: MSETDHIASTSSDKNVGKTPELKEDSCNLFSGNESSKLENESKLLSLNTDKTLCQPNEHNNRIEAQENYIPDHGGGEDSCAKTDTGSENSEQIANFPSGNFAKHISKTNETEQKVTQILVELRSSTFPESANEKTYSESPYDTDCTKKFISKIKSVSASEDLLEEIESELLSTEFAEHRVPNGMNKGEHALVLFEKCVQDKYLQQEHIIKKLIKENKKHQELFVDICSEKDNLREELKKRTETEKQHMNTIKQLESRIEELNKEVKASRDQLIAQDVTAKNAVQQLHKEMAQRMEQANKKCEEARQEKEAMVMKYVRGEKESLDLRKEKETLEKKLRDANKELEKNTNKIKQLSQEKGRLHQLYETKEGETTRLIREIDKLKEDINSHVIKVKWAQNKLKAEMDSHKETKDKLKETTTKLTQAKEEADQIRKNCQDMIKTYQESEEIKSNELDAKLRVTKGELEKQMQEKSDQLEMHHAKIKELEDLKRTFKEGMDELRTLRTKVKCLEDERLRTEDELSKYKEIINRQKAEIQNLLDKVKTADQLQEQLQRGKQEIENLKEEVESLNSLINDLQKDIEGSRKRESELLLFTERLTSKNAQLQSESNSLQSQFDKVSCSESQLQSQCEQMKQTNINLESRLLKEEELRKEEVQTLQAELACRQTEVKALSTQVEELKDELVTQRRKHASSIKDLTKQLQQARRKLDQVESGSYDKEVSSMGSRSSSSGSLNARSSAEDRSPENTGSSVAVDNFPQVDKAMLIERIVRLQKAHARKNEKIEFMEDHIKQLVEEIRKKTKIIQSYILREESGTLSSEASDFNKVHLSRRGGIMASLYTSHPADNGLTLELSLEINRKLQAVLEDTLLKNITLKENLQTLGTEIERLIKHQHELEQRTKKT
UniProt Q13185: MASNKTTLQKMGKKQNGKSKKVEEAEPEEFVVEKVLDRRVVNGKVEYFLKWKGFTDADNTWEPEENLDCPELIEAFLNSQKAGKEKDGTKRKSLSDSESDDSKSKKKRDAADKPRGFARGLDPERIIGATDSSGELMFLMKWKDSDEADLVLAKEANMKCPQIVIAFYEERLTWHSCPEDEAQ
UniProt P49589: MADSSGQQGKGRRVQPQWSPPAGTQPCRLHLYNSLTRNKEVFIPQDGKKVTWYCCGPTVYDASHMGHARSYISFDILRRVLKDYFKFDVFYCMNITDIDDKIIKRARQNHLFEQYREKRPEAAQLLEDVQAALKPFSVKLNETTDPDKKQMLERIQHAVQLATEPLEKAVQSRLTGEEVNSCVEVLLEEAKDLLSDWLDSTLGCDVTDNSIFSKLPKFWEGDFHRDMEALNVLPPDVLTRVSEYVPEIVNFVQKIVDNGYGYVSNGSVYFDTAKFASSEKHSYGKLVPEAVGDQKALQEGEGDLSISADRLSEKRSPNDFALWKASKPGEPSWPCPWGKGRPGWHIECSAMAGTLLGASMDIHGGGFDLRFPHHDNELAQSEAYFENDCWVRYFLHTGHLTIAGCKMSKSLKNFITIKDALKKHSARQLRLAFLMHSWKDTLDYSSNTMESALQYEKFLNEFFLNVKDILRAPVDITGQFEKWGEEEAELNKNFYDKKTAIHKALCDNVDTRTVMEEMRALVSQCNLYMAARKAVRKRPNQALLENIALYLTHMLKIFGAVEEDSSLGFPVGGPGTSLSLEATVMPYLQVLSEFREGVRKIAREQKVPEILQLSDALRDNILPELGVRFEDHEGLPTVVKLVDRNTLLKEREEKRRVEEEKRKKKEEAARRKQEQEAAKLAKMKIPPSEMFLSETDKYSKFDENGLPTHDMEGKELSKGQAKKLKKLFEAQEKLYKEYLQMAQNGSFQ
UniProt Q92851: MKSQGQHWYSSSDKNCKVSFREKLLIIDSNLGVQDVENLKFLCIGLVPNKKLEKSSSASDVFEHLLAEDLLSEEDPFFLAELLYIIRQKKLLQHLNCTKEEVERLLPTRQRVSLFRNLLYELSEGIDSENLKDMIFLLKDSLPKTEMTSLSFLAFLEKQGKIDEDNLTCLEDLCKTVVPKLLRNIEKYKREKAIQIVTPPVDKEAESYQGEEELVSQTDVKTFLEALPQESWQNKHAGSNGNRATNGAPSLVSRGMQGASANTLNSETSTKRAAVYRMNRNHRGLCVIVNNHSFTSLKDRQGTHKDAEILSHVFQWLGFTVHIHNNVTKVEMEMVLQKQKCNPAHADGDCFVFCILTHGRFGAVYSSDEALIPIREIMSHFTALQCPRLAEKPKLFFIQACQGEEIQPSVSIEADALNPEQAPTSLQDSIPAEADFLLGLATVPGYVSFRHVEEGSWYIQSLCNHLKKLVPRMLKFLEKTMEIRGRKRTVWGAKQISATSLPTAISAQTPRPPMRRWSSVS
UniProt Q96CT7: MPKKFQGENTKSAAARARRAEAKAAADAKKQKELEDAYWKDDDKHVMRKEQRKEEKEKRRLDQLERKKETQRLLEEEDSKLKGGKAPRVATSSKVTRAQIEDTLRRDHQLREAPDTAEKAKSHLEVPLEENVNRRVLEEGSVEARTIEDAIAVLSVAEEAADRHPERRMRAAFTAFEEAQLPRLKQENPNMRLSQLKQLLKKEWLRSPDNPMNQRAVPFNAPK
UniProt Q9NPF0: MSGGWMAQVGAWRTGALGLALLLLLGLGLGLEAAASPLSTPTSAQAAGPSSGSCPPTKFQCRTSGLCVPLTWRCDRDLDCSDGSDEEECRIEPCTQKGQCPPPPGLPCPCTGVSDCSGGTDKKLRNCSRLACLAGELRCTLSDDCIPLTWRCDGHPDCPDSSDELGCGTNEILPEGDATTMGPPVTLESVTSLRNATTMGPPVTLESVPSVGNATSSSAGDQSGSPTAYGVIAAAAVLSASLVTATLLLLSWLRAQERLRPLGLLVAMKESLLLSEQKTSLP
UniProt Q8IUF1: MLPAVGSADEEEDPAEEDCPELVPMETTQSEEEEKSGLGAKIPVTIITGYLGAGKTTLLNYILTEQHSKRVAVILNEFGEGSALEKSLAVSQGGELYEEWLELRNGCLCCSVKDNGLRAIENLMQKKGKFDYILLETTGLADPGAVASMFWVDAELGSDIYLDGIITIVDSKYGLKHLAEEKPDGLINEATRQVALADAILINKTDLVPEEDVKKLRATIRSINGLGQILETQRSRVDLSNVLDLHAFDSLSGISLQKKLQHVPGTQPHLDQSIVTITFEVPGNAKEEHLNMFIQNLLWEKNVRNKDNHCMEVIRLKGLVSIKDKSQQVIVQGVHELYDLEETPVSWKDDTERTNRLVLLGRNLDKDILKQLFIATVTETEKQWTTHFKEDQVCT
UniProt Q9Y2G2: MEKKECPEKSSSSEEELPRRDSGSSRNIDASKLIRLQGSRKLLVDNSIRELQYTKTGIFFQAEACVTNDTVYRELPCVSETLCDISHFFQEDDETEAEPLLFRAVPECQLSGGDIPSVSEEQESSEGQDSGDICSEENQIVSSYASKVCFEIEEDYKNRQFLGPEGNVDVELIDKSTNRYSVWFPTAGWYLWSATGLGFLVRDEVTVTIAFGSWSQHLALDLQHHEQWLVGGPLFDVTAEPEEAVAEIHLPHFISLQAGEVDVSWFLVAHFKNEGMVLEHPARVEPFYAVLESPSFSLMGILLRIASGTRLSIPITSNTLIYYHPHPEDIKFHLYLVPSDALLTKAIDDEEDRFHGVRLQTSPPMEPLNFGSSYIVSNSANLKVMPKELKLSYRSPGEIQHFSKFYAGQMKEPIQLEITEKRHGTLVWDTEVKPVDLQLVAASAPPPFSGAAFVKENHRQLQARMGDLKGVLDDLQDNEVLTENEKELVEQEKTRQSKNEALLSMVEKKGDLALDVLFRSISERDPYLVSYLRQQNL
UniProt Q13951, whole entry, looked up: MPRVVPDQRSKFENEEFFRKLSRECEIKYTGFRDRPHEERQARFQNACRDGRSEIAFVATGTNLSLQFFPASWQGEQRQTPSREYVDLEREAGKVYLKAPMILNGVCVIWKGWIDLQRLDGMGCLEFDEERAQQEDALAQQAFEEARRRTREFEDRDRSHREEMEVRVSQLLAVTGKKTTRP
UniProt P04040: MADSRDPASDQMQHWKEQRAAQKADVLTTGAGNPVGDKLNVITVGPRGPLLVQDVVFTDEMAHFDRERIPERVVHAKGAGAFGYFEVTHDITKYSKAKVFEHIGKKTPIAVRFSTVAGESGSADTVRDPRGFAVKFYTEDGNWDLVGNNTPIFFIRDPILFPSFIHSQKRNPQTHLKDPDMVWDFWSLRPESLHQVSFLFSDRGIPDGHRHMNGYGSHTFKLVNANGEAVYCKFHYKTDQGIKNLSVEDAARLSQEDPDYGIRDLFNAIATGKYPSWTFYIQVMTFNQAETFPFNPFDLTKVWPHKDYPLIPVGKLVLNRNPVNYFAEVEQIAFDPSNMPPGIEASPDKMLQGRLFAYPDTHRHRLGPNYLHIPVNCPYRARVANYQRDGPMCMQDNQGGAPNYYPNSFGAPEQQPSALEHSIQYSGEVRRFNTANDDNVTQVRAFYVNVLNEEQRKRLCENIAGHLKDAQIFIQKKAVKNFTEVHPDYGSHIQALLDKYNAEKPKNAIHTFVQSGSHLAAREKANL
UniProt Q9BUN5: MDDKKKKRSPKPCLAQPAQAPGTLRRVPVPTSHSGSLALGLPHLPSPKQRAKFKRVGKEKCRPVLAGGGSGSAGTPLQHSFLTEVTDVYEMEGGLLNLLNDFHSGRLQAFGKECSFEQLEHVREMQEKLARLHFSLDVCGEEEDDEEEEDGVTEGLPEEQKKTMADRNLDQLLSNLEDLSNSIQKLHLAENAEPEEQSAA
UniProt O95273: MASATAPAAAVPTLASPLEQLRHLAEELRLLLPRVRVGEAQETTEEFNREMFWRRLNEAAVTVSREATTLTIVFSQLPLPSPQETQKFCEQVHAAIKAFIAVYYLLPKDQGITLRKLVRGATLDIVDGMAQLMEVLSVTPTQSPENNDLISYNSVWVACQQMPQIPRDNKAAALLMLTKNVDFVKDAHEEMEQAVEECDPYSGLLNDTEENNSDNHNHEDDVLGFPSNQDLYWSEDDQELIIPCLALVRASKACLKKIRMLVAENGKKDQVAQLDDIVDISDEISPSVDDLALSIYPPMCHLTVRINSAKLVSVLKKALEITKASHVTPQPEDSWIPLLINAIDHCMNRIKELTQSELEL

Tests used:
Experiment in all cases: log2 fold change, soluble protein after heating vs DMSO (PISA); higher = thermal stabilisation; K562 lysate, 10 uM; active = over 0.2 and 3.5 SD of the protein, either way, in both replicates (recomputed)
[1] = compound: CCCS(=O)(=O)Nc1ccc(F)c(C(=O)c2c[nH]c3ncc(-c4ccc(Cl)cc4)cc23)c1F [vemurafenib]
In short: (§1)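 A 30 min treatment with 10 μM compound was applied to crude K562 extract at 1 mg/mL protein in PBS pH 7.4 with 1 mM MgCl2. Heating for 3 min spanned 48°C-58°C, after which aliquots were pooled, adjusted to 0.5% NP-40 at 4°C and spun at 21,000xg for 90 min. TMTpro 16plex LC-MS/MS of the supernatant, with channel sums equalised, gave values recorded as log-two fold change in thermal stability against solvent controls, from duplicates.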

[2] = compound: CCCS(=O)(=O)Nc1ccc(F)c(C(=O)c2c[nH]c3ncc(Cl)cc23)c1F
In short: as §1

[3] = compound: CCN(CCCOc1ccc2c(Nc3cc(CC(=O)Nc4cccc(F)c4)[nH]n3)ncnc2c1)CCOP(=O)(O)O [barasertib]
In short: as §1

[4] = compound: CC[C@@H]1C(=O)N(C)c2cnc(Nc3ccc(C(=O)NC4CCN(C)CC4)cc3OC)nc2N1C1CCCC1
In short: as §1

[5] = compound: CC[C@@H]1C(=O)N(C)c2cnc(Nc3ccc(C(=O)N[C@H]4CC[C@H](N5CCN(CC6CC6)CC5)CC4)cc3OC)nc2N1C(C)C [volasertib]
In short: as §1

[6] = compound: CCn1c(C(=O)N(C2CC2)C2CC2)cc2c3c(ncn3C)c(Nc3cc(C)n(C)n3)nc21
In short: as §1

[7] = compound: CCn1cc(-c2ccnc3[nH]c(-c4cccc(CN(C)C)c4)cc23)c(-c2ccc(NC(=O)N(C)C)cc2)n1
In short: as §1

[8] = compound: CN1CCC(CNc2ccc3ncc(-c4cccc(OC(F)(F)F)c4)n3n2)CC1
In short: as §1

[9] = compound: CN1CCN(CCOc2cc(OC3CCOCC3)c3c(Nc4c(Cl)ccc5c4OCO5)ncnc3c2)CC1 [saracatinib]
In short: as §1

[10] = compound: CN1CCN(c2nc(C3=C(c4c[nH]c5ccccc45)C(=O)NC3=O)c3ccccc3n2)CC1 [sotrastaurin]
In short: as §1

[11] = compound: CN1CC[C@H](c2c(O)cc(O)c3c(=O)cc(-c4ccccc4Cl)oc23)[C@H](O)C1 [alvocidib]
In short: as §1

[12] = compound: CN1CCc2c(c3ccccc3n2Cc2ccc(C(=O)NO)cc2)C1 [Tubastatin A]
In short: as §1

[13] = compound: CNC(=O)C1=CC=CC=C1NC2=NC(=NC=C2Cl)NC3=C(C=C(C=C3)N4CCOCC4)OC
In short: as §1

[14] = compound: CNC(=O)c1ccc(Nc2ncc(C(F)(F)F)c(NCc3nccnc3N(C)S(C)(=O)=O)n2)cc1 [defactinib]
In short: as §1

[15] = compound: CNc1nc(-c2ccc3c(N)n[nH]c3c2)cc(N2C[C@@H](C(=O)NC3CCCCC3)CC[C@H]2C)n1
In short: as §1

[16] = compound: COC(=O)N[C@@H](C)CNc1nccc(-c2cn(C(C)C)nc2-c2cc(Cl)cc(NS(C)(=O)=O)c2F)n1 [encorafenib]
In short: as §1

[17] = compound: COC(=O)[C@H](CCSC)NC(=O)C1=C(C=C(C=C1)NC[C@H](CS)N)C2=CC=CC=C2
In short: as §1

[18] = compound: COc1cc(Nc2ncc3c(n2)-c2ccc(Cl)cc2C(c2c(F)cccc2OC)=NC3)ccc1C(=O)O [alisertib]
In short: as §1

[19] = compound: COc1cc2nc(-c3cc(F)ccc3O)nc(N[C@@H]3CNC[C@H]3C(C)(C)O)c2cc1OC
In short: as §1

[20] = compound: COc1cc2ncnc(Nc3ccc(F)c(Cl)c3)c2cc1OCCCN1CCOCC1 [gefitinib]
In short: as §1

| Target | log2 fold change [1] | log2 fold change [2] | log2 fold change [3] | log2 fold change [4] | log2 fold change [5] | log2 fold change [6] | log2 fold change [7] | log2 fold change [8] | log2 fold change [9] | log2 fold change [10] | log2 fold change [11] | log2 fold change [12] | log2 fold change [13] | log2 fold change [14] | log2 fold change [15] | log2 fold change [16] | log2 fold change [17] | log2 fold change [18] | log2 fold change [19] | log2 fold change [20] |
| --- | --- | --- | --- | --- | --- | --- | --- | --- | --- | --- | --- | --- | --- | --- | --- | --- | --- | --- | --- | --- |
| CASTOR2 (UniProt A6NHX0) | inactive: 0.123 | inactive: 0.004 | inactive: -0.018 | inactive: 0.064 | inactive: 0.005 | inactive: -0.011 | inactive: -0.02 | inactive: 0.013 | inactive: -0.024 | inactive: 0.042 | inactive: -0.004 | inactive: 0.003 | inactive: 0.016 | inactive: -0.14 | inactive: -0.005 | inactive: 0.047 | inactive: -0.028 | inactive: 0.001 | inactive: 0.011 | inactive: 0 |
| CBLB (UniProt Q13191) | inactive: -0.039 | inactive: 0.029 | inactive: -0.026 | inactive: 0.083 | inactive: -0.014 | inactive: -0.158 | inactive: -0.15 | inactive: 0.098 | inactive: -0.022 | inactive: -0.023 | inactive: -0.018 | inactive: 0.017 | inactive: 0.002 | inactive: -0.135 | inactive: 0.045 | inactive: 0.033 | inactive: -0.068 | inactive: -0.086 | inactive: 0.054 | inactive: -0.029 |
| CCDC186 (UniProt Q7Z3E2) | inactive: -0.007 | inactive: 0.069 | inactive: -0.029 | inactive: 0.069 | inactive: 0.031 | inactive: 0.019 | active: 0.332 | inactive: -0.033 | inactive: -0.003 | inactive: -0.054 | inactive: 0.056 | inactive: 0.004 | inactive: 0.062 | inactive: -0.012 | inactive: -0.029 | inactive: 0.067 | inactive: -0.004 | inactive: 0.015 | inactive: 0.004 | inactive: 0.055 |
| CBX3 (UniProt Q13185) | inactive: 0.016 | inactive: 0 | inactive: -0.016 | inactive: 0.063 | inactive: 0.027 | inactive: -0.024 | inactive: -0.066 | inactive: 0.074 | inactive: -0.027 | inactive: -0.081 | inactive: -0.008 | inactive: 0.058 | inactive: -0.04 | inactive: 0.036 | inactive: 0.035 | inactive: -0.051 | inactive: -0.064 | inactive: 0.034 | inactive: -0.008 | inactive: -0.01 |
| CARS isoform 3 (UniProt P49589) | inactive: 0.011 | inactive: 0.004 | inactive: -0.032 | inactive: -0.01 | inactive: -0.052 | inactive: 0.02 | inactive: 0.004 | inactive: -0.029 | inactive: 0.005 | inactive: 0.041 | inactive: 0.006 | inactive: -0.041 | inactive: 0.001 | inactive: -0.013 | inactive: -0.01 | inactive: -0.013 | active: 0.213 | inactive: 0.003 | inactive: -0.005 | inactive: -0.019 |
| CASP10 isoform 4 (UniProt Q92851) | inactive: -0.003 | inactive: -0.029 | inactive: -0.009 | inactive: -0.041 | inactive: -0.027 | inactive: -0.02 | inactive: 0.002 | inactive: 0.06 | inactive: -0.008 | inactive: -0.018 | inactive: 0.035 | inactive: 0.005 | inactive: 0.006 | inactive: 0.021 | inactive: 0.046 | inactive: 0.008 | inactive: 0.016 | inactive: -0.036 | inactive: 0.012 | inactive: 0.017 |
| CCDC124 (UniProt Q96CT7) | inactive: -0.065 | inactive: -0.012 | inactive: -0.032 | inactive: 0.006 | inactive: 0.017 | inactive: 0.018 | inactive: 0.111 | inactive: -0.009 | inactive: -0.011 | inactive: 0.011 | inactive: 0.029 | inactive: 0.024 | inactive: 0.004 | inactive: 0.025 | inactive: 0.015 | inactive: 0.038 | inactive: -0.05 | inactive: -0.014 | inactive: 0.001 | inactive: -0.011 |
| CD320 (UniProt Q9NPF0) | inactive: 0 | inactive: -0.04 | inactive: 0.064 | inactive: 0.02 | inactive: -0.014 | inactive: 0.148 | inactive: -0.069 | inactive: 0.042 | inactive: 0.027 | inactive: 0.003 | inactive: -0.038 | inactive: -0.096 | inactive: 0.063 | inactive: 0.025 | inactive: -0.081 | inactive: 0.013 | inactive: 0.016 | inactive: -0.021 | inactive: -0.071 | inactive: 0.012 |
| CBWD2 (UniProt Q8IUF1) | inactive: 0.055 | inactive: -0.034 | inactive: -0.011 | inactive: -0.085 | inactive: -0.019 | inactive: 0.001 | inactive: -0.054 | inactive: -0.064 | inactive: -0.016 | inactive: 0.035 | inactive: 0.087 | inactive: 0.009 | inactive: 0.019 | inactive: -0.029 | inactive: 0.049 | inactive: 0.04 | inactive: 0.093 | inactive: 0.02 | inactive: -0.009 | inactive: -0.018 |
| CARD8 isoform 5 (UniProt Q9Y2G2) | inactive: -0.115 | inactive: 0.05 | inactive: 0.08 | inactive: 0.095 | inactive: 0.036 | inactive: -0.003 | inactive: -0.065 | inactive: 0.251 | inactive: -0.056 | inactive: -0.076 | inactive: -0.005 | inactive: -0.018 | inactive: 0.004 | inactive: 0.095 | inactive: 0.041 | inactive: 0.008 | inactive: -0.072 | inactive: -0.022 | inactive: -0.02 | inactive: 0.017 |
| CBL (UniProt P22681) | inactive: 0.007 | inactive: 0.003 | inactive: -0.012 | inactive: 0.046 | inactive: 0.016 | inactive: -0.036 | inactive: 0.002 | inactive: -0.008 | inactive: 0.013 | inactive: -0.017 | inactive: -0.001 | inactive: 0.025 | inactive: 0.027 | inactive: 0.038 | inactive: 0.054 | inactive: 0.023 | inactive: -0.076 | inactive: -0.015 | inactive: 0 | inactive: -0.005 |
| CBFB isoform 2 (UniProt Q13951) | inactive: 0.04 | inactive: -0.015 | inactive: -0.036 | inactive: -0.019 | inactive: 0.006 | inactive: 0.008 | inactive: -0.107 | inactive: 0.088 | inactive: 0.041 | inactive: -0.003 | inactive: -0.068 | inactive: 0.001 | inactive: -0.013 | inactive: -0.061 | inactive: -0.063 | inactive: 0.018 | inactive: -0.083 | inactive: 0.009 | inactive: -0.034 | inactive: -0.03 |
| CAT (UniProt P04040) | inactive: 0.005 | inactive: -0.022 | inactive: -0.012 | inactive: 0.022 | inactive: 0.028 | inactive: -0.038 | inactive: -0.006 | inactive: 0.026 | inactive: 0.016 | inactive: 0 | inactive: -0.011 | inactive: 0.083 | inactive: -0.011 | inactive: -0.014 | inactive: 0.034 | inactive: -0.023 | inactive: -0.011 | inactive: -0.001 | inactive: 0.021 | inactive: -0.014 |
| CCDC28B (UniProt Q9BUN5) | inactive: 0.122 | inactive: 0.131 | inactive: -0.078 | inactive: 0.055 | inactive: -0.06 | inactive: 0.02 | inactive: 0.095 | inactive: -0.146 | inactive: 0.055 | inactive: 0.006 | inactive: -0.143 | inactive: -0.096 | inactive: 0.01 | inactive: 0.033 | inactive: 0.099 | inactive: 0.029 | inactive: -0.08 | inactive: 0.04 | inactive: 0.065 | inactive: -0.047 |
| CCDC50 isoform 2 (UniProt Q8IVM0) | inactive: -0.046 | inactive: -0.005 | inactive: 0.002 | inactive: -0.056 | inactive: 0.011 | inactive: -0.025 | inactive: 0.007 | inactive: 0.033 | inactive: 0.037 | inactive: -0.02 | inactive: 0.007 | inactive: 0.03 | inactive: -0.062 | inactive: 0.001 | inactive: -0.146 | inactive: 0.053 | inactive: -0.013 | inactive: -0.018 | inactive: -0.009 | inactive: 0.048 |
| CCNDBP1 (UniProt O95273) | inactive: -0.087 | inactive: 0.055 | inactive: 0.046 | inactive: -0.041 | inactive: -0.005 | inactive: 0.071 | inactive: 0.185 | inactive: -0.168 | inactive: 0.026 | inactive: 0.002 | inactive: 0.122 | inactive: -0.015 | inactive: 0.018 | inactive: 0.141 | inactive: 0.063 | inactive: 0.114 | inactive: -0.088 | inactive: -0.093 | inactive: -0.01 | inactive: 0.054 |

Complete entries as entered above. Values in the order: log2 fold change [1]	log2 fold change [2]	log2 fold change [3]	log2 fold change [4]	log2 fold change [5]	log2 fold change [6]	log2 fold change [7]	log2 fold change [8]	log2 fold change [9]	log2 fold change [10]	log2 fold change [11]	log2 fold change [12]	log2 fold change [13]	log2 fold change [14]	log2 fold change [15]	log2 fold change [16]	log2 fold change [17]	log2 fold change [18]	log2 fold change [19]	log2 fold change [20]
CARS isoform 3 (UniProt P49589) as listed: inactive: 0.011	inactive: 0.004	inactive: -0.032	inactive: -0.01	inactive: -0.052	inactive: 0.02	inactive: 0.004	inactive: -0.029	inactive: 0.005	inactive: 0.041	inactive: 0.006	inactive: -0.041	inactive: 0.001	inactive: -0.013	inactive: -0.01	inactive: -0.013	active: 0.213	inactive: 0.003	inactive: -0.005	inactive: -0.019
CBLB (UniProt Q13191) as listed: inactive: -0.039	inactive: 0.029	inactive: -0.026	inactive: 0.083	inactive: -0.014	inactive: -0.158	inactive: -0.15	inactive: 0.098	inactive: -0.022	inactive: -0.023	inactive: -0.018	inactive: 0.017	inactive: 0.002	inactive: -0.135	inactive: 0.045	inactive: 0.033	inactive: -0.068	inactive: -0.086	inactive: 0.054	inactive: -0.029
